{
  "source": "patent US20090124659A1",
  "about": "“Combination therapy using 1-aminocyclohexane derivatives and acetylcholinesterase and inhibitors” (priority 2002, published 2009)",
  "key": {"[1]": {"assay": "clinical", "settings": "both, human, in vivo, 10 mg, time of peak donepezil plasma concentration (Tmax), once daily multiple dosing of 10 mg donepezil"}, "[2]": {"settings": "5 mg/day for 28 days in healthy subjects; cited from earlier work"}, "[3]": {"settings": "10 mg donepezil daily, single 10 mg memantine"}},
  "note": "Where a name gives a salt, the structure may show the parent alone.",
  "data": [
    {"smiles": "COc1cc2c(cc1OC)C(=O)C(CC1CCN(Cc3ccccc3)CC1)C2", "note": "(racemic) [donepezil, (R,S)-1-benzyl-4-[(5,6-dimethoxy-1-indanon)-2yl]-methylpiperidine hydrochloride]", "values": [
      {"measurement": "decrease of donepezil CL/F with memantine compared to donepezil alone", "setting": "[3]", "result": 15, "unit": "%"},
      {"measurement": "increase of mean donepezil AUC0-24 with memantine compared to donepezil alone", "setting": "[3]", "result": 9, "unit": "%"},
      {"measurement": "increase of mean donepezil Cmax with memantine compared to donepezil alone", "setting": "[3]", "result": 13, "unit": "%"},
      {"measurement": "90% confidence interval for the log-transformed donepezil Cmax (with memantine versus alone)", "setting": "all 19 completers", "result": "104.2-126.5%"},
      {"measurement": "Tmax", "setting": "[1]; with memantine 10 mg", "result": 3.3, "unit": "h"},
      {"measurement": "Tmax", "setting": "[1]; without memantine", "result": 3.4, "unit": "h"},
      {"measurement": "peak plasma concentrations (Cmax)", "setting": "[2]", "result": 34.1, "unit": "ng/mL"}
    ]}
  ]
}
